Test results from the supplement of paper PMC10849652.
The list shows a part of the results.

Chains of the proteins cited; added tags and fusions are not shown. Lines headed by an entry give the natural chain unless they say otherwise; changes in a name come on top.
UniProt Q9Y2Y1: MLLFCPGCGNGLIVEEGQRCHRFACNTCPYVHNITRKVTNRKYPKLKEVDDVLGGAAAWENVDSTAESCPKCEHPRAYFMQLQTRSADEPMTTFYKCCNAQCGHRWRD
UniProt Q6UW63: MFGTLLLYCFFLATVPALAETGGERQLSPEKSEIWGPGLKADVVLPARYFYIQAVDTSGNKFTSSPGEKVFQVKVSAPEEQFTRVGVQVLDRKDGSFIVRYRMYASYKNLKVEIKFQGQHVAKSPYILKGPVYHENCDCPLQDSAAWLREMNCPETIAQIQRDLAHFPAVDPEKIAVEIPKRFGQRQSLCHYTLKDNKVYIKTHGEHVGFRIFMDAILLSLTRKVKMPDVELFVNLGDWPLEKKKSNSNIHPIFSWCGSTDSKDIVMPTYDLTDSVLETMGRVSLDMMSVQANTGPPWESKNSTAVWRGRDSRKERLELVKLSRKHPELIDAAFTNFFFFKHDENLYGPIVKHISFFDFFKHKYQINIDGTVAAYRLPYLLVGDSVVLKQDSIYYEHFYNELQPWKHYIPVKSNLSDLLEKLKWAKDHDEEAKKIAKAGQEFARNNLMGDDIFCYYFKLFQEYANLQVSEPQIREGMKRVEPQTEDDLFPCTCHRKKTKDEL
UniProt Q06203, whole entry, looked up: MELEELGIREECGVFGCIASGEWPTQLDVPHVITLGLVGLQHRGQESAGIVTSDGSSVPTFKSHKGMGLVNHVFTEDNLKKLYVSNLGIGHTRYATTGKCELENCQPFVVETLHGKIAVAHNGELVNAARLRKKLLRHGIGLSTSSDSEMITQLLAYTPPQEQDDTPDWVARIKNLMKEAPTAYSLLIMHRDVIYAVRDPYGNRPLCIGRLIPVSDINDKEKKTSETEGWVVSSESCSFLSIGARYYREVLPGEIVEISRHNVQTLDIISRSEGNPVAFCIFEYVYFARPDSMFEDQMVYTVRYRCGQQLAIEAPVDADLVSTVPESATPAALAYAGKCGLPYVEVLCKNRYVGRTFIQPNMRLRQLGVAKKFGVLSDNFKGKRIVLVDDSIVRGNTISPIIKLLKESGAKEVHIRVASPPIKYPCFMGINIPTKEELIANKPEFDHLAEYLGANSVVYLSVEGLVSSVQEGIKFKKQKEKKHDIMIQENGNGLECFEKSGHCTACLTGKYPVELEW
UniProt Q8TCS8: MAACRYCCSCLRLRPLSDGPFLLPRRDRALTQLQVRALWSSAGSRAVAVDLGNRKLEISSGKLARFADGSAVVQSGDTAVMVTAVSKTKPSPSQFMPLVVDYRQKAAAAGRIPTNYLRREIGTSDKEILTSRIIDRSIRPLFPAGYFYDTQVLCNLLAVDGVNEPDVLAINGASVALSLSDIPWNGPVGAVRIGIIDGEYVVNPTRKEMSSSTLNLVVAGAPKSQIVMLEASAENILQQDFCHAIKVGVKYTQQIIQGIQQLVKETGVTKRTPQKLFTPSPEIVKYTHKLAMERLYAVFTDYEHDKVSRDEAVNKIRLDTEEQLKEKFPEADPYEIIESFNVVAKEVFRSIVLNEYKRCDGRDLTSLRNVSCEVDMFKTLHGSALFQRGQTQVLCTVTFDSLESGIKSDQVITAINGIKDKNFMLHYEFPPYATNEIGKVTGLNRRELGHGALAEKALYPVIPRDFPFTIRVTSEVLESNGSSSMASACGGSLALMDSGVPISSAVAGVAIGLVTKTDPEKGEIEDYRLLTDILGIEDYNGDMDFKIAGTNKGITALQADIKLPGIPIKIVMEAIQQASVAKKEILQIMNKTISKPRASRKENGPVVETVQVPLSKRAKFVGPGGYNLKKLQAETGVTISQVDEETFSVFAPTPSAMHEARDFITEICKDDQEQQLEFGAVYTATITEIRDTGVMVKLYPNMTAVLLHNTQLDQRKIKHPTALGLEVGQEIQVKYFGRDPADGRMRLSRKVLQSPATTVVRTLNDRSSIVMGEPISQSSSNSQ
UniProt P0CG38, whole entry, looked up: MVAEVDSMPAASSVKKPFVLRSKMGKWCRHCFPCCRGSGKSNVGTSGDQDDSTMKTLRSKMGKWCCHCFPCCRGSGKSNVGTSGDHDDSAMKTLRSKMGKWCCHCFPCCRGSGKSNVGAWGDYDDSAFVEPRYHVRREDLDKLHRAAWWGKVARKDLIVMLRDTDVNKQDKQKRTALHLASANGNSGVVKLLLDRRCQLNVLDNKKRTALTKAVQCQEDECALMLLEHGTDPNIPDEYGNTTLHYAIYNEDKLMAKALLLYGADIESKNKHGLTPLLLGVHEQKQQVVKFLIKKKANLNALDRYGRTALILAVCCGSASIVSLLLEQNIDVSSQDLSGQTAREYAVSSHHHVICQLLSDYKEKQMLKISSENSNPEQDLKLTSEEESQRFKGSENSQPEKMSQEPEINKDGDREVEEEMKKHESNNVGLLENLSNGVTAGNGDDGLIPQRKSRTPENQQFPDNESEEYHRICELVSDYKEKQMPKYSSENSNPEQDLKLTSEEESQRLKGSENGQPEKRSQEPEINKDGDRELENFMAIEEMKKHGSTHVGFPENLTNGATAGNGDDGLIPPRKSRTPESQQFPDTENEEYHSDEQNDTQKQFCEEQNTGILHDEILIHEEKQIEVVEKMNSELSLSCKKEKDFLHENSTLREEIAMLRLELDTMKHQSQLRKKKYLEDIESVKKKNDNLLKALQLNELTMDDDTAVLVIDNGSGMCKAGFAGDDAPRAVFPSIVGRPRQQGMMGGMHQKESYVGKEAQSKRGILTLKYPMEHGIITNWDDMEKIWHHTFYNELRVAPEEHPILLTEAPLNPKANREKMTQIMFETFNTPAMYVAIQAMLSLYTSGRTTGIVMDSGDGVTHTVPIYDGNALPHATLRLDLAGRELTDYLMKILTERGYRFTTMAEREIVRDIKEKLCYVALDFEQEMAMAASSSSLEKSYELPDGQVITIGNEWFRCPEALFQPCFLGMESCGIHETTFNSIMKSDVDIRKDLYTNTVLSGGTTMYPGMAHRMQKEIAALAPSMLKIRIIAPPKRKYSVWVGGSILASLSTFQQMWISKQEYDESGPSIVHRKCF
UniProt O43314: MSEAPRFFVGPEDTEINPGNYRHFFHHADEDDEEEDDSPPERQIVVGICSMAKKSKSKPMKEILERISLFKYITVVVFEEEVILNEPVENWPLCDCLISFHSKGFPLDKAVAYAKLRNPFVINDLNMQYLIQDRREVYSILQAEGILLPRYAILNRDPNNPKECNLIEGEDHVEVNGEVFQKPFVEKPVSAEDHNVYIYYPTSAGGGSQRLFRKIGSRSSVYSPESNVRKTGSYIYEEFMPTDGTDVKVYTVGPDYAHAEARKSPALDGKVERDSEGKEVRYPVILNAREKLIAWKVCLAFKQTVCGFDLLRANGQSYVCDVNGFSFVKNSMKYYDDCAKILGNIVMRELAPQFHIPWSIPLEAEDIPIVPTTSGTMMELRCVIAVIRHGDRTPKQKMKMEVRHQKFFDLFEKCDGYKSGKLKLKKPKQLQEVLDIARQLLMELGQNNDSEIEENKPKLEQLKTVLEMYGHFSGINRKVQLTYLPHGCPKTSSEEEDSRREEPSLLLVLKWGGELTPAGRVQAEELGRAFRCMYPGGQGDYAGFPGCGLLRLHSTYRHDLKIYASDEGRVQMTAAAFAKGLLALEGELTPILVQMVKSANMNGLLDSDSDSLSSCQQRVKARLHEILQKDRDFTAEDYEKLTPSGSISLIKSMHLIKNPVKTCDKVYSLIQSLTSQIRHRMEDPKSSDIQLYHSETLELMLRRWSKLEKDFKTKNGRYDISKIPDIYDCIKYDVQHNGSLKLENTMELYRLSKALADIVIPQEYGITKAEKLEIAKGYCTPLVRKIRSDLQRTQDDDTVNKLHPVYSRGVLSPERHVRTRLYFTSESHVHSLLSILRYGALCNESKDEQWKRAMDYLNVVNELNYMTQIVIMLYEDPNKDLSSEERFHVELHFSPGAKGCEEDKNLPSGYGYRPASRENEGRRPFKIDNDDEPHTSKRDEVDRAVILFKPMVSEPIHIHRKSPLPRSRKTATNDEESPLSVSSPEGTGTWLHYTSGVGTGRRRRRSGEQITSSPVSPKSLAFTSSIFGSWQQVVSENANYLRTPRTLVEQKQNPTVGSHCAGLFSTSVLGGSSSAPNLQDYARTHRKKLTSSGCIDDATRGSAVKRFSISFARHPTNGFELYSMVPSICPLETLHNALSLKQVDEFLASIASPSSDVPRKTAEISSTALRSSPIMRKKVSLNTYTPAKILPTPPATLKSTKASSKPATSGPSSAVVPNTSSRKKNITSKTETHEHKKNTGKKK
UniProt Q14181: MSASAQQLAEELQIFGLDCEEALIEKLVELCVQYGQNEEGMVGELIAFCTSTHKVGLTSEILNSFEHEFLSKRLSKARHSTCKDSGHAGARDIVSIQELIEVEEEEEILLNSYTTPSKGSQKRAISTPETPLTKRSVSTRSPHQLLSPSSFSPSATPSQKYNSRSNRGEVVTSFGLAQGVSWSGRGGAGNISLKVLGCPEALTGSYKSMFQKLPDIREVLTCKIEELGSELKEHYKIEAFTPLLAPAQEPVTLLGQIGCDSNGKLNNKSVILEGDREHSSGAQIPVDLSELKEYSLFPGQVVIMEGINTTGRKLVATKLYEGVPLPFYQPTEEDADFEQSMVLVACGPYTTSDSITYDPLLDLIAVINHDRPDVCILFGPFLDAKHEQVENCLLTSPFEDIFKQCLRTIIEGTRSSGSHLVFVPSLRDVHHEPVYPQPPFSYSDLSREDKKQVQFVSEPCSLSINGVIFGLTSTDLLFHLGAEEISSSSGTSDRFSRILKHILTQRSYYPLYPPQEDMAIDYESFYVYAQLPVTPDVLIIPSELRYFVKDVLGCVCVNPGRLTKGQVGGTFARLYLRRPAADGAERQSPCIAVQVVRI
UniProt Q15181: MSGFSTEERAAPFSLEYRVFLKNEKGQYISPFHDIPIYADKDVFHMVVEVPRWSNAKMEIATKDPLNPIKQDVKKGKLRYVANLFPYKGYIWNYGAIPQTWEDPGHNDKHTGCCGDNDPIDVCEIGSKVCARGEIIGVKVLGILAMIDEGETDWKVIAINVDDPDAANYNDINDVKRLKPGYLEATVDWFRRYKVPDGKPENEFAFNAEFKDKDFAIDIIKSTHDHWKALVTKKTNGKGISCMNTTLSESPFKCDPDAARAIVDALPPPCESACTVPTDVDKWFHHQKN
UniProt P14859: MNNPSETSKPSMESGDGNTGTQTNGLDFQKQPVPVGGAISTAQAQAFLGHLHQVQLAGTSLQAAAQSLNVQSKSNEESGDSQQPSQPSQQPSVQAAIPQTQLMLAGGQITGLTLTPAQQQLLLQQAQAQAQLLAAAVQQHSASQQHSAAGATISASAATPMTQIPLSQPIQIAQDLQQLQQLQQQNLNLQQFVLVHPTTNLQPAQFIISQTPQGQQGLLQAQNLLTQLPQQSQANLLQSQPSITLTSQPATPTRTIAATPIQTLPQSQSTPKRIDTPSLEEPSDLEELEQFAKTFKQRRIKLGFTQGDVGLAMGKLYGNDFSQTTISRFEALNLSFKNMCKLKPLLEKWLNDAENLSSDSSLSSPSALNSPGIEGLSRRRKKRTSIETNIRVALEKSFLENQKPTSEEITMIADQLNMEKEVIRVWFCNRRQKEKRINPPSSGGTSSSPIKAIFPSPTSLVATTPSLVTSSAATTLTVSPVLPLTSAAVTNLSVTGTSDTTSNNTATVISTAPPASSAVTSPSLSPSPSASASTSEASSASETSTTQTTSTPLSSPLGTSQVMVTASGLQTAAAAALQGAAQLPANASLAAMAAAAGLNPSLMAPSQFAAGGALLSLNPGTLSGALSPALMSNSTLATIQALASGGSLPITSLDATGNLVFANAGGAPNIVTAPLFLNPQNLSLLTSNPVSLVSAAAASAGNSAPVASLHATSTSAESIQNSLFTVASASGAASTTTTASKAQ
UniProt Q9BUI4: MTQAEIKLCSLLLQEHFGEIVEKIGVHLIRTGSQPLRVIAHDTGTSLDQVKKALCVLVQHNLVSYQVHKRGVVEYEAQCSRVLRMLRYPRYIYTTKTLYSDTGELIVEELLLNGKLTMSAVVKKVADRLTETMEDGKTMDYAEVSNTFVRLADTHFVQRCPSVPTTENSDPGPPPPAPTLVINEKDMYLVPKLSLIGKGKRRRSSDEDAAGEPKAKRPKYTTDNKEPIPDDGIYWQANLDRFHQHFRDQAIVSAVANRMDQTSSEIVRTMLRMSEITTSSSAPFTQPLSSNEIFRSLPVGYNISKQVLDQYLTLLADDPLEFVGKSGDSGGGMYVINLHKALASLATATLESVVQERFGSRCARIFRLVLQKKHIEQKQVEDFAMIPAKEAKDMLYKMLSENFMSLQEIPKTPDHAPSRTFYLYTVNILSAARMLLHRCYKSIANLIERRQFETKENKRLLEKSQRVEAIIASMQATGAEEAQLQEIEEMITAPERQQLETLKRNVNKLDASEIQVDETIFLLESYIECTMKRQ
UniProt Q969H6: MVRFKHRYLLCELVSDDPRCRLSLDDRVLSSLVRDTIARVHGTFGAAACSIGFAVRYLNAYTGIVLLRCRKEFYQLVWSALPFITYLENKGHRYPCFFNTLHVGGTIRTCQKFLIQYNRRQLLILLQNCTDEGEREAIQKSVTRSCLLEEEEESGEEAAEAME

Tests used:
Assay in all cases: log2 fold change, soluble protein after heating vs DMSO (PISA); higher = thermal stabilisation; K562 cells, 10 uM, 30 min; active = over 0.2 and 3.5 SD of the protein, either way, in both replicates (recomputed)
bafetinib = compound: Cc1ccc(NC(=O)c2ccc(CN3CC[C@H](N(C)C)C3)c(C(F)(F)F)c2)cc1Nc1nccc(-c2cncnc2)n1 [bafetinib]
In short: (§1)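 K562 cells at 2×10^6 cells/mL were treated for 30 min with 10 μM compound, and aliquots were heated for 3 min over 48°C-58°C before pooling. Extraction used PBS with 0.5% NP-40 at 4°C, and soluble protein was the supernatant after 21,000xg for 90 min, measured by TMTpro 16plex LC-MS/MS with channel sums equalised. Thermal stability values, relative to control samples and from duplicates, are log2 fold changes.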

[1] = compound: Cc1cccc(CC(=O)N2CCc3c2ccc(-c2cn(C)c4ncnc(N)c24)c3F)n1
In short: as §1

nilotinib = compound: Cc1cn(-c2cc(NC(=O)c3ccc(C)c(Nc4nccc(-c5cccnc5)n4)c3)cc(C(F)(F)F)c2)cn1 [nilotinib]
In short: as §1

[2] = compound: Cc1nc(Nc2n[nH]c3c2CN(C(=O)N[C@H](CN(C)C)c2ccccc2)C3(C)C)c2sccc2n1
In short: as §1

dasatinib = compound: Cc1nc(Nc2ncc(C(=O)Nc3c(C)cccc3Cl)s2)cc(N2CCN(CCO)CC2)n1 [dasatinib]
In short: as §1

[3] = compound: Cc1ncc(-c2ccnc(Nc3ccc(S(C)(=O)=O)cc3)n2)n1C(C)C
In short: as §1

[4] = compound: Cn1cc(-c2ccc3c(c2)CCN3C(=O)Cc2cccc(C(F)(F)F)c2)c2c(N)ncnc21
In short: as §1

[5] = compound: Cn1cc(-c2ccc3nnc(C(F)(F)c4ccc5ncccc5c4)n3n2)cn1
In short: as §1

tipifarnib = compound: Cn1cncc1[C@@](N)(c1ccc(Cl)cc1)c1ccc2c(c1)c(-c1cccc(Cl)c1)cc(=O)n2C [tipifarnib]
In short: as §1

mubritinib = compound: FC(F)(F)c1ccc(/C=C/c2nc(COc3ccc(CCCCn4ccnn4)cc3)co2)cc1 [mubritinib]
In short: as §1

[6] = compound: NC(=O)Nc1cc(-c2cccc(F)c2)sc1C(=O)N[C@H]1CCCNC1
In short: as §1

[7] = compound: NC(=O)c1cnc(N[C@@H]2CCCC[C@@H]2N)nc1Nc1cccc(-n2nccn2)c1
In short: as §1

[8] = compound: NC1(c2ccc(-c3nc4ccn5c(=O)[nH]nc5c4cc3-c3ccccc3)cc2)CCC1
In short: as §1

[9] = compound: NCC(=O)Nc1ccc(-n2nc(C(F)(F)F)cc2-c2ccc3c(ccc4ccccc43)c2)cc1
In short: as §1

entinostat = compound: Nc1ccccc1NC(=O)c1ccc(CNC(=O)OCc2cccnc2)cc1 [entinostat]
In short: as §1

vorinostat = compound: O=C(CCCCCCC(=O)Nc1ccccc1)NO [vorinostat]
In short: as §1

citarinostat = compound: O=C(CCCCCCNC(=O)c1cnc(N(c2ccccc2)c2ccccc2Cl)nc1)NO [citarinostat]
In short: as §1

silmitasertib = compound: O=C(O)c1ccc2c(c1)nc(Nc1cccc(Cl)c1)c1ccncc12 [silmitasertib]
In short: as §1

[10] = compound: O=C1NC(=O)C(c2cnc3ccccn23)=C1c1cn2c3c(cc(F)cc13)CN(C(=O)N1CCCCC1)CC2
In short: as §1

[11] = compound: c1cc(OCCN2CCCCC2)cc(-c2n[nH]c3ccc(-c4nnc[nH]4)cc23)c1
In short: as §1

Measured: log2 fold change

POLR3K (UniProt Q9Y2Y1)
inactive: bafetinib -0.006 | [1] -0.039 | nilotinib 0.035 | [2] -0.003 | dasatinib 0.098 | [3] 0.01 | [4] -0.02 | [5] -0.021 | tipifarnib 0.033 | mubritinib -0.088 | [6] 0.045 | [7] 0.007 | [8] 0.057 | [9] 0.057 | entinostat 0.009 | vorinostat -0.003 | citarinostat -0.025 | silmitasertib 0.013 | [10] -0.028 | [11] 0.025

POGLUT2 (UniProt Q6UW63)
inactive: bafetinib 0.003 | [1] -0.014 | nilotinib -0.001 | [2] 0.05 | dasatinib 0.039 | [3] -0.05 | [4] -0.018 | [5] 0.006 | tipifarnib 0.096 | mubritinib 0.159 | [6] 0.013 | [7] -0.004 | [8] -0.024 | [9] -0.021 | entinostat -0.022 | vorinostat -0.022 | citarinostat -0.002 | silmitasertib -0.013 | [10] 0.062 | [11] -0.037

PNKD isoform 3 (UniProt Q8N490)
inactive: bafetinib -0.124 | [1] -0.007 | nilotinib 0.059 | [2] -0.016 | dasatinib 0.023 | [3] -0.01 | [4] 0.019 | [5] -0.102 | tipifarnib -0.171 | mubritinib 0.052 | [6] 0.015 | [7] -0.032 | [8] -0.015 | [9] -0.013 | entinostat -0.043 | vorinostat -0.026 | citarinostat 0.055 | silmitasertib 0.002 | [10] -0.017 | [11] -0.023

PMPCB (UniProt O75439)
active: tipifarnib 0.269
inactive: bafetinib 0.035 | [1] 0.025 | nilotinib -0.054 | [2] 0.089 | dasatinib 0.098 | [3] -0.04 | [4] 0.105 | [5] 0.046 | mubritinib 0.053 | [6] -0.03 | [7] 0.024 | [8] -0.02 | [9] 0.023 | entinostat -0.043 | vorinostat -0.009 | citarinostat 0.037 | silmitasertib -0.103 | [10] -0.012 | [11] 0.023

PPAT (UniProt Q06203)
inactive: bafetinib -0.025 | [1] -0.021 | nilotinib 0.01 | [2] 0.006 | dasatinib 0.015 | [3] 0.002 | [4] 0.066 | [5] 0.006 | tipifarnib 0.015 | mubritinib 0.026 | [6] 0.007 | [7] 0.004 | [8] -0.016 | [9] 0.015 | entinostat -0.038 | vorinostat -0.037 | citarinostat 0.027 | silmitasertib -0.045 | [10] -0.031 | [11] -0.026

PNPT1 (UniProt Q8TCS8)
inactive: bafetinib 0.007 | [1] -0.009 | nilotinib -0.047 | [2] -0.018 | dasatinib -0.14 | [3] 0.037 | [4] 0.025 | [5] 0.024 | tipifarnib 0 | mubritinib -0.018 | [6] 0.031 | [7] -0.014 | [8] -0.04 | [9] -0.077 | entinostat 0.075 | vorinostat 0.063 | citarinostat 0.09 | silmitasertib 0.001 | [10] -0.11 | [11] -0.006

POTEI (UniProt P0CG38)
inactive: bafetinib -0.052 | [1] -0.02 | nilotinib 0.046 | [2] -0.049 | dasatinib 0.087 | [3] 0.043 | [4] -0.005 | [5] -0.003 | tipifarnib -0.019 | mubritinib 0.004 | [6] -0.058 | [7] 0.061 | [8] 0.139 | [9] 0.124 | entinostat -0.004 | vorinostat -0.016 | citarinostat -0.009 | silmitasertib -0.03 | [10] -0.053 | [11] -0.004

PPFIA2 (UniProt O75334)
inactive: bafetinib -0.085 | [1] -0.082 | nilotinib -0.077 | [2] 0 | dasatinib -0.032 | [3] -0.139 | [4] -0.067 | [5] -0.086 | tipifarnib -0.091 | mubritinib 0.148 | [6] 0.068 | [7] -0.152 | [8] 0.102 | [9] 0.084 | entinostat -0.016 | vorinostat -0.005 | citarinostat 0.216 | silmitasertib -0.009 | [10] 0.188 | [11] -0.143

PPIP5K2 (UniProt O43314)
inactive: bafetinib -0.033 | [1] -0.026 | nilotinib 0.065 | [2] 0.046 | dasatinib 0 | [3] -0.005 | [4] 0.051 | [5] 0.004 | tipifarnib -0.032 | mubritinib 0.014 | [6] -0.063 | [7] -0.057 | [8] -0.016 | [9] -0.052 | entinostat 0.015 | vorinostat 0.01 | citarinostat 0.031 | silmitasertib -0.037 | [10] -0.09 | [11] -0.003

4 neighbouring entries already listed:
PNPT1 (UniProt Q8TCS8)
inactive: bafetinib 0.007 | [1] -0.009 | nilotinib -0.047 | [2] -0.018 | dasatinib -0.14 | [3] 0.037 | [4] 0.025 | [5] 0.024 | tipifarnib 0 | mubritinib -0.018 | [6] 0.031 | [7] -0.014 | [8] -0.04 | [9] -0.077 | entinostat 0.075 | vorinostat 0.063 | citarinostat 0.09 | silmitasertib 0.001 | [10] -0.11 | [11] -0.006

POTEI (UniProt P0CG38)
inactive: bafetinib -0.052 | [1] -0.02 | nilotinib 0.046 | [2] -0.049 | dasatinib 0.087 | [3] 0.043 | [4] -0.005 | [5] -0.003 | tipifarnib -0.019 | mubritinib 0.004 | [6] -0.058 | [7] 0.061 | [8] 0.139 | [9] 0.124 | entinostat -0.004 | vorinostat -0.016 | citarinostat -0.009 | silmitasertib -0.03 | [10] -0.053 | [11] -0.004

PPFIA2 (UniProt O75334)
inactive: bafetinib -0.085 | [1] -0.082 | nilotinib -0.077 | [2] 0 | dasatinib -0.032 | [3] -0.139 | [4] -0.067 | [5] -0.086 | tipifarnib -0.091 | mubritinib 0.148 | [6] 0.068 | [7] -0.152 | [8] 0.102 | [9] 0.084 | entinostat -0.016 | vorinostat -0.005 | citarinostat 0.216 | silmitasertib -0.009 | [10] 0.188 | [11] -0.143

PPIP5K2 (UniProt O43314)
inactive: bafetinib -0.033 | [1] -0.026 | nilotinib 0.065 | [2] 0.046 | dasatinib 0 | [3] -0.005 | [4] 0.051 | [5] 0.004 | tipifarnib -0.032 | mubritinib 0.014 | [6] -0.063 | [7] -0.057 | [8] -0.016 | [9] -0.052 | entinostat 0.015 | vorinostat 0.01 | citarinostat 0.031 | silmitasertib -0.037 | [10] -0.09 | [11] -0.003

More entries

POLA2 (UniProt Q14181)
inactive: bafetinib -0.038 | [1] 0.058 | nilotinib -0.036 | [2] -0.072 | dasatinib -0.101 | [3] -0.02 | [4] 0.022 | [5] 0.001 | tipifarnib -0.04 | mubritinib 0.041 | [6] -0.102 | [7] -0.115 | [8] -0.129 | [9] -0.133 | entinostat -0.014 | vorinostat 0.072 | citarinostat 0.054 | silmitasertib 0.058 | [10] -0.054 | [11] -0.026

PPA1 (UniProt Q15181)
inactive: bafetinib 0.033 | [1] 0.01 | nilotinib 0.028 | [2] 0.067 | dasatinib -0.009 | [3] -0.001 | [4] 0.038 | [5] -0.003 | tipifarnib -0.09 | mubritinib 0.02 | [6] -0.043 | [7] -0.014 | [8] -0.005 | [9] -0.026 | entinostat 0.018 | vorinostat -0.016 | citarinostat -0.009 | silmitasertib -0.067 | [10] -0.078 | [11] -0.032

POU2F1 isoform 6 (UniProt P14859)
inactive: bafetinib 0.026 | [1] 0.11 | nilotinib -0.079 | [2] -0.048 | dasatinib -0.204 | [3] 0.06 | [4] 0.002 | [5] -0.005 | tipifarnib -0.028 | mubritinib 0.088 | [6] -0.019 | [7] -0.147 | [8] -0.167 | [9] -0.072 | entinostat 0.14 | vorinostat 0.087 | citarinostat 0.199 | silmitasertib -0.009 | [10] 0 | [11] 0.031

POLR3C (UniProt Q9BUI4)
inactive: bafetinib -0.049 | [1] -0.037 | nilotinib 0 | [2] -0.012 | dasatinib -0.019 | [3] -0.027 | [4] 0.036 | [5] 0.051 | tipifarnib -0.009 | mubritinib 0.018 | [6] 0.016 | [7] -0.042 | [8] -0.027 | [9] 0.02 | entinostat -0.009 | vorinostat -0.003 | citarinostat -0.003 | silmitasertib -0.013 | [10] -0.068 | [11] 0.037

PPID (UniProt Q08752)
inactive: bafetinib 0.015 | [1] 0.075 | nilotinib -0.113 | [2] -0.13 | dasatinib -0.206 | [3] 0.062 | [4] 0.023 | [5] 0.076 | tipifarnib -0.148 | mubritinib -0.005 | [6] -0.073 | [7] -0.075 | [8] -0.093 | [9] -0.065 | entinostat 0.049 | vorinostat 0.108 | citarinostat 0.108 | silmitasertib 0.095 | [10] -0.028 | [11] 0

POP5 (UniProt Q969H6)
inactive: bafetinib -0.016 | [1] -0.017 | nilotinib 0.006 | [2] -0.089 | dasatinib -0.002 | [3] 0.045 | [4] -0.032 | [5] -0.017 | tipifarnib 0.02 | mubritinib 0.052 | [6] 0.061 | [7] 0.072 | [8] 0.003 | [9] 0.072 | entinostat -0.033 | vorinostat 0.011 | citarinostat 0.021 | silmitasertib 0.022 | [10] 0.011 | [11] -0.139

PNO1 (UniProt Q9NRX1)
inactive: bafetinib 0.237 | [1] 0.077 | nilotinib -0.128 | [2] 0.14 | dasatinib 0.008 | [3] -0.005 | [4] -0.033 | [5] -0.068 | tipifarnib -0.082 | mubritinib -0.004 | [6] 0.022 | [7] 0.133 | [8] 0.08 | [9] -0.037 | entinostat 0.072 | vorinostat 0.217 | citarinostat 0.05 | silmitasertib -0.017 | [10] 0.154 | [11] -0.079
